At least one structure is not confirmed: it was looked up by name or label, or the drawing left a doubt.
What was measured:
β2AR complex = assay: Recruitment of AP-2 adaptin and clathrin to the agonist-stimulated β2AR complex (immunoprecipitation, immunoblot); format: cell-based; details: LY294002 pretreatment 15 min; isoproterenol 5 min; n=7
Method: Immunoblotting and Detection—Immunoblotting and detection of PI3K, βARK1, HA-PI3Kγ, HA-ΔPI3Kγ, Myc-PI3Kα, FLAG-HEAT, PI3KΔHEAT-HA, FLAG-β2AR, HA-β2AR, β-adaptin and clathrin was carried out as previously described. Immunoprecipitating antibodies were added to 500 μg of cell lysate in lysis buffer followed by the addition of 35 μl of 1:1 Protein A- or G-agarose. Samples were rocked overnight at 4° C. then centrifuged at 12,000×g for 5 min. Immunoprecipitates were washed twice with lysis buffer, twice with 1×PBS and resuspended in 1×SDS-gel loading buffer. Proteins were resolved by SDS-polyacrylamide gel electrophoresis and blotted on to PVDF membrane (Bio-Rad). Blots were incubated with antibodies recognizing PI3K, Myc (Santa-Cruz), β-adaptin, clathrin heavy chain (BD Transduction Laboratories), HA (Roche Molecular Biochemicals) and FLAG (Sigma) at 1:2000 dilution and the βARK1 monoclonal antibody at 1:10,000 dilution. Blots were subsequently incubated with appropriate secondary antibody (1:2000 dilution) conjugated to horseradish peroxidase (Amersham Pharmacia Biotech) and detection was carried out using enhanced chemiluminescence. […]
The present inventors determined that βARK1-mediated localization of PI3K within the activated receptor complex is responsible for the generation of D-3 phosphatidylinositols necessary for the efficient recruitment of adaptin to the P2AR complex. […]

β2AR = β2AR sequestration in HEK-293 cells by 125I-Cyanopindolol binding; format: cell-based; details: 1 μM isoproterenol, 0-30 min; wortmannin 100 nM 15 min before, or co-transfected ΔPI3Kγ
Method: Determination of β2AR Sequestration in HEK-293 Cells by ^125I-Cyanopindolol (CYP) Binding—β2AR sequestration was performed as previously described. Briefly, HEK-293 cells were plated at a density of 2.5×10^6 cells/dish and transfected the following day with plasmids containing either the β2AR (150-250 ng), β2AR (250 ng) and HEAT domain (4 μg), PI3Kγ (4.0 μg) or ΔPI3Kγ (4.0 μg) cDNAs. Twelve hours after transfection cells were split into six well Falcon plates at a density of 750,000 cells/well. […] To determine the amount of internalized receptor, 100 μl aliquots of whole cells were added to 150 μl of binding buffer (75 mM Tris-HCl, 10 mM MgCl2, 5 mM EDTA (pH 7.5)). Total binding was determined in the presence of 175 pM ^125I-CYP alone, the number of internalized receptors were determined by using 175 pM ^125I-CYP plus 100 nM CGP12177, and non-specific binding was determined using 175 pM ^125I-CYP plus 1 μM propranolol. Sequestration was calculated as the ratio of (specific receptor binding of ^125I-CYP in the presence of CGP12177)/(specific receptor binding of ^125I-CYP in the absence of CGP12177).

PI3K = assay: βAR associated and endogenous PI3K activity (lipid kinase assay) in HEK-293 cells
[1] = 100 nM wortmannin 15 min prior to 10 μM isoproterenol

Compound | agonist-induced association of adaptin protein with the receptor complex (β2AR complex) | rate of β2AR sequestration (β2AR) | PI3K activity associated with FLAG β1AR, sensitivity to inhibitor (PI3K; [1]) | PI3K activity associated with FLAG β2AR, sensitivity to inhibitor (PI3K; [1]) | endogenous lipid kinase activity (PI3K; β2AR transfected HEK-293 cells, wortmannin treated)
O=c1cc(N2CCOCC2)oc2c(-c3ccccc3)cccc12 [LY294002, reference compound] | completely blocked |  |  |  | 
COC[C@H]1OC(=O)c2coc3c2[C@@]1(C)C1=C(C3=O)[C@@H]2CCC(=O)[C@@]2(C)C[C@H]1OC(C)=O [wortmannin] |  | significant attenuation | wortmannin sensitive | wortmannin sensitive | inhibition

Source: patent US20060026702A1, “Phosphoinositide 3-kinase mediated inhibition of GPCRs” (DUKE UNIVERSITY, priority 2002, published 2006)
